PubChem BioAssay AID652259, Drosophila RNAi Screening Center, 2013

Test: 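Identify new Wingless signalling regulators in fly cells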 (primary screen)
Cell system: Drosophila clone 8 imaginal disc epithelial cells
Knock-down reagent: long dsRNA against Drosophila genes
Challenge: pathway stimulated by co-transfected Wingless expression plasmid
Detection: 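Dual luciferase reads per well after Wingless plasmid stimulation: reporter firefly light and Renilla control light; activity is firefly divided by Renilla, a ratio not deposited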
Reading the numbers: firefly reporter light: higher = more Wg reporter light, before normalisation; Renilla control light: higher = more transfected or surviving cells
Active means: 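Strong candidates differ from their plate mean by at least two out of four per-plate statistical tests; weak candidates meet just one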
Meaning of the calls: active = candidate regulator (raises or lowers reporter); inactive = not a candidate
The screen tested about 22,000 reagents; below is a random part of those with a known target gene and a result. Of all reagents, 233 (1.1%) were called active. 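Light values are raw, unnormalised plate reads; the ratio scores behind the reporter calls were not deposited.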 Reagents against one gene are numbered here. The record does not give: the amount of reagent, the time to read-out, the dose of the treatment.

The first 3 entries as a preview:
no.	gene	dsRNA no.	firefly reporter light, replicate 1	firefly reporter light, replicate 2	Renilla control light, replicate 1	Renilla control light, replicate 2	Outcome
1	Amacr	1	9874		2609		inactive
2	Vap33	1	4048	9095	2042	2977	inactive
3	CG13003	1	20112		9287		inactive

The list itself, from the start:
no.	gene	dsRNA no.	firefly reporter light, replicate 1	firefly reporter light, replicate 2	Renilla control light, replicate 1	Renilla control light, replicate 2	Outcome
1	Amacr	1	9874		2609		inactive
2	Vap33	1	4048	9095	2042	2977	inactive
3	CG13003	1	20112		9287		inactive
4	loopin-1	1	8788		3128		inactive
5	Dis3l2	1	8957		3209		inactive
6	CG7763	1	4864		2084		inactive
7	glob3	1	19344		2432		inactive
8	CG33172	1	4.26e5	4.12e5	1.79e5	1.44e5	inactive
9	CG10469	1	1315	7004	853	2539	inactive
10	Ret	1	8668		2869		inactive
11	Ret	2	2561	5228	979	2605	inactive
12	Atg16	1	3222	8202	1299	1933	inactive
13	Atg16	2	6041		1962		inactive
14	Atg16	3	5691		1986		inactive
15	Ptpmeg	1	12139		3107		inactive
16	CG43336	1	19701		5133		inactive
17	CNMaR	1	3513		810		inactive
18	CNMaR	2	5754		2764		inactive
19	CG9945	1	7602		3344		inactive
20	ppk15	1	14258		16541		inactive
21	CG13474	1	7937		1978		inactive
22	Kots	1	7697		2096		inactive
23	List	1	5849		2283		inactive
24	CG14892	1	12343		3244		inactive
25	CG7083	1	1364	5545	976	2672	inactive
26	Pex12	1	2627	6528	882	2209	inactive
27	mdy	1	18280		8505		inactive
28	mdy	2	6561		2522		inactive
29	CG14974	1	7490		2700		inactive
